Results: the supplement of paper PMC10849652
Some of the results follow.

The chains behind the UniProt entries cited, without tags or fusion partners. Where a name states a change or a piece, a line headed by the entry shows the natural chain unless it says otherwise.
UniProt Q674X7: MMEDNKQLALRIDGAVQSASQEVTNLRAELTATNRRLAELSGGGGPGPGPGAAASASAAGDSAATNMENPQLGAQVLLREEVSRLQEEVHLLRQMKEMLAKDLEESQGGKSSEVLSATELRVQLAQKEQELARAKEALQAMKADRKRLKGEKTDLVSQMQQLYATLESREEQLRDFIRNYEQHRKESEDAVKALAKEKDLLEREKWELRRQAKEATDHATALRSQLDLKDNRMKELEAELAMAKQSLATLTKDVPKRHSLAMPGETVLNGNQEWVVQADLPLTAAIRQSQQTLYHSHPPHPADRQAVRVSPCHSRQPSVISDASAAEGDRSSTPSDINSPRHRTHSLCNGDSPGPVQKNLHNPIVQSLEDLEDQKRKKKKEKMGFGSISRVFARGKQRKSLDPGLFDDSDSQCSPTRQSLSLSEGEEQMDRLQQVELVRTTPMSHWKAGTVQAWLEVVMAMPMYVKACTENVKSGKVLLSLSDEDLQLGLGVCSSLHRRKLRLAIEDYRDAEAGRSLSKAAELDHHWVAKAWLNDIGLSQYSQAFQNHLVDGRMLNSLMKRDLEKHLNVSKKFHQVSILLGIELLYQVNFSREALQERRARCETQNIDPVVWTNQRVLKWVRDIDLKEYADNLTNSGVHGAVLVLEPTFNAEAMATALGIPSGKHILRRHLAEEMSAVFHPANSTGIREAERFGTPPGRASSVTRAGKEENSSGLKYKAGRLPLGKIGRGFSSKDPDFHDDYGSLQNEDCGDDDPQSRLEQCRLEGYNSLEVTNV
UniProt Q96SI1: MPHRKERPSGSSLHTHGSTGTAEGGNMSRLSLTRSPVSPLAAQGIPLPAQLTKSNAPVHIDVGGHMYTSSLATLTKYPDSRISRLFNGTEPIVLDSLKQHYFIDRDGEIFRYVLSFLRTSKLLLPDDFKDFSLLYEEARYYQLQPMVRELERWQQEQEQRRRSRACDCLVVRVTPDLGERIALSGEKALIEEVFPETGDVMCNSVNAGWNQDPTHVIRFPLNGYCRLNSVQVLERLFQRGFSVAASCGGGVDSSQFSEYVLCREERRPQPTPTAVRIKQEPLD
UniProt Q9ULR0: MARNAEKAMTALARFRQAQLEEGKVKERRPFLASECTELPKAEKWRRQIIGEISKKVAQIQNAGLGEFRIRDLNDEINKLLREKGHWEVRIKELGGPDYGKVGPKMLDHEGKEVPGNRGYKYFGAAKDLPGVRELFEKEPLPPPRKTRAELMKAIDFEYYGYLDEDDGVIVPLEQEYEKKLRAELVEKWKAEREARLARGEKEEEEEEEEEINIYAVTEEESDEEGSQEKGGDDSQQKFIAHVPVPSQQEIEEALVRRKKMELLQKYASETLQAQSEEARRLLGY
UniProt Q9UK76: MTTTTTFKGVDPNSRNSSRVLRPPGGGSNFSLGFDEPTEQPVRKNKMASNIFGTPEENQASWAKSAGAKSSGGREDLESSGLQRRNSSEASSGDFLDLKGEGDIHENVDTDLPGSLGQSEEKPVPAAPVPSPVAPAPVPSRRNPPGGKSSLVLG
UniProt P05161, whole entry, looked up: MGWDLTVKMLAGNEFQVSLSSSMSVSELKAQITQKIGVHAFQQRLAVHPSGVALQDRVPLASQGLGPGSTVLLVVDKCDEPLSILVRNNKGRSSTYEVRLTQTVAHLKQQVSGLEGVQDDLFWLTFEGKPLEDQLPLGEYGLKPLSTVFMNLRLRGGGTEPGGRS
UniProt Q9H1K1: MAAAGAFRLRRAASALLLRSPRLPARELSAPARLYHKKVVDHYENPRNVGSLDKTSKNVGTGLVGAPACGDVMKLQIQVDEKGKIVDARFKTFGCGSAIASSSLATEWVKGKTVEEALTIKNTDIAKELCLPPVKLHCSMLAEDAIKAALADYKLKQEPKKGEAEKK
UniProt Q9Y597: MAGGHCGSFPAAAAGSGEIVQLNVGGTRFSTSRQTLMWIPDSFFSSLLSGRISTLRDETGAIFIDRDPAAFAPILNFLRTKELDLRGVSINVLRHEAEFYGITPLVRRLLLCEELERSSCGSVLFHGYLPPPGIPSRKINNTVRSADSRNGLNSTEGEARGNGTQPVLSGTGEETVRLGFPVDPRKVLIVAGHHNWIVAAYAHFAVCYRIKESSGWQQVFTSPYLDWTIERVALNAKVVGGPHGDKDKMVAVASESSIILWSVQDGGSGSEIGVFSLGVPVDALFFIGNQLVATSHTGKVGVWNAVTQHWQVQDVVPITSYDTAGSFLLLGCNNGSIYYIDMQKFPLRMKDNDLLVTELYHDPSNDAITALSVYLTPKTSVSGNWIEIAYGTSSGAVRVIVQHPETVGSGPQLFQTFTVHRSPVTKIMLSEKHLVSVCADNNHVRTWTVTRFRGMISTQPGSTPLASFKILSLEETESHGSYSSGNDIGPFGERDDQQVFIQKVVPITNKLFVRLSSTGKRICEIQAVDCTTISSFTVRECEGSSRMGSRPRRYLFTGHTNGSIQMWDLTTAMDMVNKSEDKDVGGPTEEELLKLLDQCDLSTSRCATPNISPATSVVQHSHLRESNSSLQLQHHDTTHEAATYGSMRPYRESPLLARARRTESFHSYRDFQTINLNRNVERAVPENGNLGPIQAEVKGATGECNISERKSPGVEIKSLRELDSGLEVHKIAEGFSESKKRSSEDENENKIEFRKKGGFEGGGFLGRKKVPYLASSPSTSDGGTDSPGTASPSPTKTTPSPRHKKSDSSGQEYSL
UniProt Q9P2N6: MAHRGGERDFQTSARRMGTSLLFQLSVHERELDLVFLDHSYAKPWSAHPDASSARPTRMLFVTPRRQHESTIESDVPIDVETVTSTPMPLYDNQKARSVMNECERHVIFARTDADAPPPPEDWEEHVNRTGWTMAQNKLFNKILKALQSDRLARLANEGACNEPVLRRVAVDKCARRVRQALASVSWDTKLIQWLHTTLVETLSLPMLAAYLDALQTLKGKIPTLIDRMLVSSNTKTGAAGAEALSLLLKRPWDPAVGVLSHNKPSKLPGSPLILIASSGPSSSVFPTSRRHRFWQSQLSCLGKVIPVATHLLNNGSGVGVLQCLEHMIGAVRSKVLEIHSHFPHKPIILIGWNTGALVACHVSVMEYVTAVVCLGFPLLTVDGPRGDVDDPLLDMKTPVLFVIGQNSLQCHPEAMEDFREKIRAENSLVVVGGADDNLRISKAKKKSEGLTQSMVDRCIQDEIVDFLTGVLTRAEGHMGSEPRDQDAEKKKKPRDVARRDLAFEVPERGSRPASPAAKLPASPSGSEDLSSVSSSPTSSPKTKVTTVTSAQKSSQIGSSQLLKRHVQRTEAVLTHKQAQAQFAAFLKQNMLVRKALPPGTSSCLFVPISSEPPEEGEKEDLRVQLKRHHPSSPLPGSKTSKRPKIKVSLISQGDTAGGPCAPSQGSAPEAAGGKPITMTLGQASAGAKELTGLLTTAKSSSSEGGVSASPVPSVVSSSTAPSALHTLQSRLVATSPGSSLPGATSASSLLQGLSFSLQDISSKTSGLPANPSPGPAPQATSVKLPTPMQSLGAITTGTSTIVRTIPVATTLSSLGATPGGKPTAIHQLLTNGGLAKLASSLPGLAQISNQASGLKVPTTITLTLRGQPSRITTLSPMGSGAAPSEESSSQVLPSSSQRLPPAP
UniProt Q9H0H0, whole entry, looked up: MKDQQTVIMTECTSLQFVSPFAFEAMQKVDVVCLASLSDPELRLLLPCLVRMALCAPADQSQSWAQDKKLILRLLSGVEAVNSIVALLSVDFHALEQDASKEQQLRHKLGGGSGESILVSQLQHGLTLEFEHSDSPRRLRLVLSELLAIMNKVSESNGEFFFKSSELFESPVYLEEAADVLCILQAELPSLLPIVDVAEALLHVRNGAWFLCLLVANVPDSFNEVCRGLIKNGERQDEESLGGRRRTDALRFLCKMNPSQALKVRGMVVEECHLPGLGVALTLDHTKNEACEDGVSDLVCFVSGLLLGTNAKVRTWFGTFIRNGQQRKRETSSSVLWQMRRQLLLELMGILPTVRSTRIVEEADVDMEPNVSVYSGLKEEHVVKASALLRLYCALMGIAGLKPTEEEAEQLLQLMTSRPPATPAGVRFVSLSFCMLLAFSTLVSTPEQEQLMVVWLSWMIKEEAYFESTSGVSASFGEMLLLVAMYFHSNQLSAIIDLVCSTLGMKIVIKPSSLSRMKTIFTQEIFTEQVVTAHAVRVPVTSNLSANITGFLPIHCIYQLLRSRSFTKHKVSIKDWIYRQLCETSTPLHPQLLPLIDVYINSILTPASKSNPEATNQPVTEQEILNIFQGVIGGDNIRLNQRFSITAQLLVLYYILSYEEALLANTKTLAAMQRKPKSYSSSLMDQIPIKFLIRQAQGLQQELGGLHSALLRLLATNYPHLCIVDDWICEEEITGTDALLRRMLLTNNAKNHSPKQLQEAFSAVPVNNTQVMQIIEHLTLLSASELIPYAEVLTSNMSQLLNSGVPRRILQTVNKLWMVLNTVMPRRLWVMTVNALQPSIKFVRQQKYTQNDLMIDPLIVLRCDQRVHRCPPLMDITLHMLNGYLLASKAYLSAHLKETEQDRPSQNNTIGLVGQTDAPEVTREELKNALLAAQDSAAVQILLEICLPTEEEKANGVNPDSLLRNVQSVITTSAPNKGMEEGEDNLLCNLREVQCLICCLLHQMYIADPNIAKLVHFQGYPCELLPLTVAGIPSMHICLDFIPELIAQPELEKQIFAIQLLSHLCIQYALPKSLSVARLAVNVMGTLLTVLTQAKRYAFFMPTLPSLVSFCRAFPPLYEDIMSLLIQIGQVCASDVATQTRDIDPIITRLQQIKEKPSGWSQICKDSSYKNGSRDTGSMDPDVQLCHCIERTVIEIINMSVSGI
UniProt Q8TEX9: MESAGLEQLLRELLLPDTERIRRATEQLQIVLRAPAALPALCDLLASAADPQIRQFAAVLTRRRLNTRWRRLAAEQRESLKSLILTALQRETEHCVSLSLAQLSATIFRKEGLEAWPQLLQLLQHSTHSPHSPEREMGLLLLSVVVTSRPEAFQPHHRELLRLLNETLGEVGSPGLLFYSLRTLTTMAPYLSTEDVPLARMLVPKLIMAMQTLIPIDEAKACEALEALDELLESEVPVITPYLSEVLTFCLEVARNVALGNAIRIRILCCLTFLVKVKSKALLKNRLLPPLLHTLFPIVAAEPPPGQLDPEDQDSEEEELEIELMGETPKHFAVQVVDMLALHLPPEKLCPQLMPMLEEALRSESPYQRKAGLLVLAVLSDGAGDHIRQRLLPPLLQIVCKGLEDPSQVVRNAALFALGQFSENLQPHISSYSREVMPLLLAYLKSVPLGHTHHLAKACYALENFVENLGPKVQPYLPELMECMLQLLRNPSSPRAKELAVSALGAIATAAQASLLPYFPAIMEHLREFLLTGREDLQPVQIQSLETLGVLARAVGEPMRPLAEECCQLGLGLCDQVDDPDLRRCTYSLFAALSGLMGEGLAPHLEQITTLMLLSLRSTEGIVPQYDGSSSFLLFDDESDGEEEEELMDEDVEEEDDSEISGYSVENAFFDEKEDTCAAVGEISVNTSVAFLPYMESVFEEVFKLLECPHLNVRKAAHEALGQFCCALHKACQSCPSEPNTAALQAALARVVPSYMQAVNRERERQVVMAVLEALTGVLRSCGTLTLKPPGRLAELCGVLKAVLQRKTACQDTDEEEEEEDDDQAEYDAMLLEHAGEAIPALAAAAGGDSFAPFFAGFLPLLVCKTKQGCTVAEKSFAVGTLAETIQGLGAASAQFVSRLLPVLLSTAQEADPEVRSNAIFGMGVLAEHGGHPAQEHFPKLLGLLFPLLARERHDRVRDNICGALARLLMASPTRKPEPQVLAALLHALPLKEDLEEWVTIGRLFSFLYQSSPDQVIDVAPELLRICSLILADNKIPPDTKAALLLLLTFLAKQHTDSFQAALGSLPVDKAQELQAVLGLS
UniProt Q92993, whole entry, looked up: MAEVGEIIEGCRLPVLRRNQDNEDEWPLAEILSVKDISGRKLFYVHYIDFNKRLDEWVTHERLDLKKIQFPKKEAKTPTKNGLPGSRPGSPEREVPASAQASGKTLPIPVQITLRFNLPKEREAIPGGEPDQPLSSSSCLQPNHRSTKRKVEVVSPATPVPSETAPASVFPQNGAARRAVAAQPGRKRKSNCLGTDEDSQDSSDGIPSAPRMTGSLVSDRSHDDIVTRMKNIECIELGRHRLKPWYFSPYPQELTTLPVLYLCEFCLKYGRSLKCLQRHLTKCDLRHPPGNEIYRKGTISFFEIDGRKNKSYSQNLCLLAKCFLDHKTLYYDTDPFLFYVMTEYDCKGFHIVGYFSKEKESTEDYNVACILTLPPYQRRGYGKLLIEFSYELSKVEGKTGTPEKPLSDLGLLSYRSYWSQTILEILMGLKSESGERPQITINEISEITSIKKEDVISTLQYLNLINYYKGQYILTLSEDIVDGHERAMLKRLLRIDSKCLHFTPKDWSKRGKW
UniProt P24390: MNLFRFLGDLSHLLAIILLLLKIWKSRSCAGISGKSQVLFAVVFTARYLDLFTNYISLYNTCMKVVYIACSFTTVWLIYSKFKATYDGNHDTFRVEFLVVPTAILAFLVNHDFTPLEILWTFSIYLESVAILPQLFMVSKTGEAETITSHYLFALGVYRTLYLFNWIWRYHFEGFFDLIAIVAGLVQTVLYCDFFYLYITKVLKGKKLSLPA

What was measured:
Assay in all cases: log2 fold change, soluble protein after heating vs DMSO (PISA); higher = thermal stabilisation; K562 lysate, 10 uM; active = over 0.2 and 3.5 SD of the protein, either way, in both replicates (recomputed)
ibrutinib = compound: C=CC(=O)N1CCC[C@@H](n2nc(-c3ccc(Oc4ccccc4)cc3)c3c(N)ncnc32)C1 [ibrutinib]
In short: (§1)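 K562 pellets were dounce-homogenised in PBS pH 7.4 with 1 mM MgCl2, and the crude extract at 1 mg/mL protein was treated with 10 μM compound for 30 min. Aliquots were heated for 3 min across 48°C-58°C, pooled, and brought to 0.5% NP-40 at 4°C; soluble protein was the supernatant after 21,000xg for 90 min. Soluble protein was quantified by TMTpro 16plex LC-MS/MS with channel sums equalised, and reported as log2 fold change in thermal stability against DMSO controls, with values from duplicates.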

[1] = compound: CC(=O)c1cnc2ccc(-c3cc(Cl)c(O)c(Cl)c3)nc2c1N[C@H]1CC[C@H](CN(C)C)CC1
In short: as §1

ralimetinib = compound: CC(C)(C)Cn1c(N)nc2ccc(-c3[nH]c(C(C)(C)C)nc3-c3ccc(F)cc3)nc21 [ralimetinib]
In short: as §1

[2] = compound: CC(C)(O)CC(=O)NCCn1ccc2ncnc(Nc3ccc(Oc4cccc(C(F)(F)F)c4)c(Cl)c3)c21
In short: as §1

[3] = compound: CC(C)C1=C2N=C(C=C(N2N=C1)NCC3=CC=CC=C3)NCCCCCCN
In short: as §1

[4] = compound: CC1=C(C(CC(=O)N1)C2=CC=C(C=C2)C(F)(F)F)C(=O)NC3=C(C=C4C(=C3)C=NN4)F
In short: as §1

[5] = compound: CC1=C(C2=C(C=C1)C(=O)C3=CC=CC=C3N2CCCN)C
In short: as §1

[6] = compound: CC1=C(C=C(C=C1)NC(=O)C2=CC(=CC=C2)C(C)(C)C#N)NC3=CC4=C(C=C3)N=CN(C4=O)C
In short: as §1

[7] = compound: CC1=C(C=C(C=C1)NC(=O)C2=CC(=CC=C2)N(C)C)NC(=O)C3=CC=C(C=C3)O
In short: as §1

[8] = compound: CC1=CC=C(C=C1)SC2=C3C=C(SC3=CN=C2)C(=O)N
In short: as §1

Measured: log2 fold change

KAZN (UniProt Q674X7)
inactive: ibrutinib 0.06 | [1] -0.017 | ralimetinib 0.04 | [2] -0.068 | [3] 0 | [4] -0.003 | [5] -0.009 | [6] 0.01 | [7] -0.07 | [8] -0.018

JAGN1 (UniProt Q8N5M9)
inactive: ibrutinib 0.083 | [1] 0.036 | ralimetinib -0.007 | [2] 0.062 | [3] -0.023 | [4] 0.022 | [5] -0.028 | [6] -0.008 | [7] 0.004 | [8] 0.012

KCTD15 (UniProt Q96SI1)
inactive: ibrutinib 0.029 | [1] -0.017 | ralimetinib 0.064 | [2] 0.055 | [3] 0.002 | [4] 0.032 | [5] -0.021 | [6] -0.02 | [7] -0.021 | [8] -0.013

IRF3 (UniProt Q14653)
inactive: ibrutinib 0.011 | [1] 0.033 | ralimetinib 0.036 | [2] -0.016 | [3] -0.005 | [4] 0.019 | [5] -0.004 | [6] 0.037 | [7] -0.049 | [8] 0.006

ISY1 isoform 1 (UniProt Q9ULR0)
inactive: ibrutinib 0.019 | [1] 0.028 | ralimetinib 0.007 | [2] -0.029 | [3] -0.056 | [4] -0.019 | [5] -0.157 | [6] -0.006 | [7] -0.02 | [8] -0.04

IRF2BP2 (UniProt Q7Z5L9)
inactive: ibrutinib 0.02 | [1] -0.019 | ralimetinib -0.002 | [2] -0.028 | [3] -0.054 | [4] -0.014 | [5] 0.006 | [6] 0.037 | [7] -0.003 | [8] -0.062

JPT1 (UniProt Q9UK76)
inactive: ibrutinib 0.191 | [1] -0.017 | ralimetinib -0.005 | [2] -0.012 | [3] -0.002 | [4] -0.006 | [5] -0.006 | [6] 0.007 | [7] -0.038 | [8] -0.022

ISG15 (UniProt P05161)
inactive: ibrutinib -0.017 | [1] -0.035 | ralimetinib 0.006 | [2] -0.08 | [3] -0.055 | [4] -0.027 | [5] -0.064 | [6] 0.009 | [7] 0.015 | [8] -0.034

Taken from the results shown (two entries):
IRF2BP2 (UniProt Q7Z5L9)
inactive: ibrutinib 0.02 | [1] -0.019 | ralimetinib -0.002 | [2] -0.028 | [3] -0.054 | [4] -0.014 | [5] 0.006 | [6] 0.037 | [7] -0.003 | [8] -0.062

JPT1 (UniProt Q9UK76)
inactive: ibrutinib 0.191 | [1] -0.017 | ralimetinib -0.005 | [2] -0.012 | [3] -0.002 | [4] -0.006 | [5] -0.006 | [6] 0.007 | [7] -0.038 | [8] -0.022

Remaining list, next part.

KBTBD2 (UniProt Q8IY47)
inactive: ibrutinib -0.005 | [1] -0.039 | ralimetinib -0.113 | [2] -0.227 | [3] 0 | [4] 0.001 | [5] -0.036 | [6] 0.116 | [7] 0 | [8] -0.041

IPO7 (UniProt O95373)
inactive: ibrutinib -0.009 | [1] -0.003 | ralimetinib 0.007 | [2] -0.041 | [3] -0.017 | [4] -0.017 | [5] -0.008 | [6] 0.016 | [7] -0.022 | [8] 0.007

ISCU (UniProt Q9H1K1)
inactive: ibrutinib 0.009 | [1] -0.055 | ralimetinib -0.07 | [2] -0.059 | [3] -0.002 | [4] -0.004 | [5] 0.036 | [6] -0.064 | [7] 0.032 | [8] -0.014

IWS1 (UniProt Q96ST2)
inactive: ibrutinib 0.038 | [1] -0.026 | ralimetinib 0.018 | [2] 0.004 | [3] -0.002 | [4] -0.014 | [5] -0.014 | [6] -0.015 | [7] 0.008 | [8] -0.013

KCT2 (UniProt Q8NC54)
inactive: ibrutinib 0.025 | [1] 0.018 | ralimetinib 0.038 | [2] -0.076 | [3] -0.015 | [4] 0.008 | [5] -0.034 | [6] -0.025 | [7] 0.004 | [8] -0.024

KCTD3 (UniProt Q9Y597)
inactive: ibrutinib 0.049 | [1] 0.013 | ralimetinib -0.034 | [2] -0.021 | [3] -0.016 | [4] -0.03 | [5] -0.01 | [6] 0.024 | [7] 0.01 | [8] -0.002

KANSL3 (UniProt Q9P2N6)
inactive: ibrutinib -0.164 | [1] 0.001 | ralimetinib -0.041 | [2] 0.011 | [3] 0.016 | [4] -0.026 | [5] 0.01 | [6] -0.112 | [7] 0.064 | [8] -0.081

ITGAV (UniProt P06756)
inactive: ibrutinib -0.002 | [1] -0.009 | ralimetinib -0.011 | [2] -0.025 | [3] -0.037 | [4] -0.034 | [5] -0.018 | [6] 0.028 | [7] 0.014 | [8] -0.028

INTS2 (UniProt Q9H0H0)
inactive: ibrutinib -0.031 | [1] -0.097 | ralimetinib -0.008 | [2] -0.077 | [3] 0.064 | [4] 0.01 | [5] -0.019 | [6] -0.064 | [7] 0.028 | [8] 0.083

IQGAP2 (UniProt Q13576)
inactive: ibrutinib 0.002 | [1] 0.002 | ralimetinib 0.027 | [2] -0.022 | [3] -0.004 | [4] 0.004 | [5] -0.012 | [6] 0.01 | [7] 0.031 | [8] -0.001

IPO4 isoform 2 (UniProt Q8TEX9)
inactive: ibrutinib 0.016 | [1] 0.006 | ralimetinib 0.012 | [2] -0.031 | [3] -0.031 | [4] -0.023 | [5] -0.007 | [6] -0.001 | [7] -0.001 | [8] -0.007

KAT5 isoform 3 (UniProt Q92993)
inactive: ibrutinib 0.022 | [1] 0.038 | [3] -0.169 | [4] 0.048 | [5] 0.055 | [6] -0.019 | [8] -0.161

JAK3 (UniProt P52333)
inactive: ibrutinib 0.076 | [1] 0.056 | [6] -0.016 | [8] 0.078

ITGAE (UniProt P38570)
inactive: ibrutinib 0.091 | [1] 0.037 | ralimetinib 0.097 | [2] -0.013 | [3] -0.189 | [4] -0.108 | [7] 0.229 | [8] -0.135

IQUB (UniProt Q8NA54)
inactive: ibrutinib 0.04 | [1] 0.047 | [8] -0.097

JMJD6 isoform 3 (UniProt Q6NYC1)
inactive: ibrutinib -0.045 | [1] 0 | ralimetinib 0.076 | [2] 0.028 | [3] 0 | [4] -0.021 | [5] 0.008 | [6] -0.03 | [7] 0.022 | [8] -0.026

KDELR1 (UniProt P24390)
inactive: ibrutinib 0.018 | [1] 0.067 | ralimetinib 0.062 | [2] -0.154 | [3] -0.017 | [5] 0.023 | [6] -0.022 | [7] 0.009 | [8] 0.069

ITPR1 (UniProt Q14643)
inactive: ibrutinib -0.095 | [1] -0.03 | ralimetinib -0.009 | [2] -0.133 | [6] -0.064 | [7] 0.087 | [8] -0.057

IPO11 isoform 2 (UniProt Q9UI26)
inactive: ibrutinib -0.03 | [1] -0.023 | ralimetinib -0.002 | [2] -0.026 | [3] -0.008 | [4] 0.024 | [5] 0.005 | [6] 0.038 | [7] 0.01 | [8] -0.016
